No constants are given. Whether binding was seen depends on the method and setting. In cells and extracts the contact can be indirect. Some entries that bind do so weakly or less than the wild type. Sequences can lack the tags named with a protein.
Target: T1, Human recombinant GST-Arc (bait of the pull-down, on glutathione-Sepharose) (human) (UniProt Q7LC44)
T1 sequence: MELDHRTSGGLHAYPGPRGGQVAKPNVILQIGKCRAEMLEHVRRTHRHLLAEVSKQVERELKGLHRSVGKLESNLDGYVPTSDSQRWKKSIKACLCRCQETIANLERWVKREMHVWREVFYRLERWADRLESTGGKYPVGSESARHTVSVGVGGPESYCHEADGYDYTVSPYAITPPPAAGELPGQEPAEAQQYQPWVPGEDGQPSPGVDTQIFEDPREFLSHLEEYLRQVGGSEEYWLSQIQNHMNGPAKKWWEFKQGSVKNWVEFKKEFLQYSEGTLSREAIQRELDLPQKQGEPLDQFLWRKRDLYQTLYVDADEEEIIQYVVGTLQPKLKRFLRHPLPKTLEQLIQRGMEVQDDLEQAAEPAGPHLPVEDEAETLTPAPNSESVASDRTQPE
Assay: pull-down

Sequences of proteins named here, by UniProt entry; tags and fusion partners are left off.
UniProt Q99MK2: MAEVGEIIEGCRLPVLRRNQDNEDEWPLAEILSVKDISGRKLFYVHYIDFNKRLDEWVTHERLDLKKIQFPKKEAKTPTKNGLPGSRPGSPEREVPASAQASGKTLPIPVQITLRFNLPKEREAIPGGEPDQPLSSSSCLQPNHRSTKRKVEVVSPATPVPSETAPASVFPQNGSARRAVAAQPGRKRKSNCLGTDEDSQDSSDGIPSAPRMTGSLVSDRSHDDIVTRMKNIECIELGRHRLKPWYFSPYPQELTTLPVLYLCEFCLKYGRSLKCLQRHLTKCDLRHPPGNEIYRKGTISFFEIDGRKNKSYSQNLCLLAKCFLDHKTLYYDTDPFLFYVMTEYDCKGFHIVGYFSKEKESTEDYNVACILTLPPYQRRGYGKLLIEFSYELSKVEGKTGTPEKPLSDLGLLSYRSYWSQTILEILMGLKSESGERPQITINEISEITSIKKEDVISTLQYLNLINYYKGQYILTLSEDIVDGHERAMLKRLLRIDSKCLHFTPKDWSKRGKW

binding: binds
Substance: Histone acetyl transferase TIP60, endogenous, rat dentate gyrus nucleosol (from UniProt Q99MK2 1-513)
